Values from PubChem BioAssay AID1224826 (NIAID, 2016)

- Aim: 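Genes that change LPS-induced Tnf promoter activity in mouse macrophages when knocked down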 (primary screen)
- System: RAW264.7 G9 macrophages from mouse bearing reporters for p65 (GFP) and the Tnf promoter (mCherry)
- Knock-down reagent: siRNA pool against mouse genes, 100 nM
- Timing: 16 h of LPS stimulation, after 2 days of siRNA transfection
- Conditions: bacterial lipopolysaccharide (Salmonella minnesota R595), 10 ng/ml
- Measured: 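Imaged Tnf reporter mCherry in nuclei, minus background, normalised per plate to the median and expressed as robust z-scores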
- Scale: Tnf reporter robust z-score: higher = stronger Tnf promoter reporter signal after LPS; Tnf reporter intensity: higher = stronger Tnf promoter reporter signal
- Call rule: 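Called active when robust z-score is at most -1.3, matching the median of the Tlr4 knock-down control, or over 3; control wells and wells with under 50 cells never active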
- Calls: active = Tnf reporter clearly lowered or raised; inactive = no clear change in Tnf reporter
In all, the deposit lists about 17,000 reagents; shown is an unselected part. Of all reagents, about 1,110 (6.6%) are marked active. 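Active means lowered or raised reporter signal; replicate intensities are raw and not normalised per plate.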 A reagent listed more than once was tested more than once; the source does not tell the runs apart. Reagent sequences are not shown.

target	Tnf reporter robust z-score	fewer than 50 cells in well	Tnf reporter intensity, replicate 1	Tnf reporter intensity, replicate 2	outcome
Fxyd3	-0.68	enough cells in well	193	104	inactive
Tlcd4	0.33	enough cells in well	151	239	inactive
Glod5		fewer than 50 cells per well; well left out of calls	155	54	inactive
Rad1	-0.2	enough cells in well	274	200	inactive
Khnyn	1.54	enough cells in well	311	248	inactive
Tlr9	-0.59	enough cells in well	186	108	inactive
Nudt1	1.16	enough cells in well	364	231	inactive
Cln6	-0.81	enough cells in well	166	165	inactive
Cops7a	1	enough cells in well	258	224	inactive
Lpar3	-0.73	enough cells in well	127	284	inactive
Dhx32	0.27	enough cells in well	281	115	inactive
Rhebl1	0.85	enough cells in well	140	160	inactive
Crhr2	0.05	enough cells in well	203	328	inactive
Agbl2	-0.22	enough cells in well	217	77.8	inactive
Icam4	-0.81	enough cells in well	123	107	inactive
Dennd10	0.61	enough cells in well	185	75.4	inactive
Tbl1x	-0.41	enough cells in well	209	111	inactive
Gpr173	-0.18	enough cells in well	177	321	inactive
Gpr173	0.55	enough cells in well	155	80.4	inactive
Enpp1	0.62	enough cells in well	266	291	inactive
Galnt5	-1.98	enough cells in well	84.5	69.8	active
Vps25	-0.91	enough cells in well	93.5	158	inactive
Grap	-1.17	enough cells in well	179	121	inactive
Dnajb2	0.99	enough cells in well	216	175	inactive
Plppr4	-0.77	enough cells in well	45.4	109	inactive

Copied from the listing (5 entries):
target	Tnf reporter robust z-score	fewer than 50 cells in well	Tnf reporter intensity, replicate 1	Tnf reporter intensity, replicate 2	outcome
Enpp1	0.62	enough cells in well	266	291	inactive
Galnt5	-1.98	enough cells in well	84.5	69.8	active
Vps25	-0.91	enough cells in well	93.5	158	inactive
Grap	-1.17	enough cells in well	179	121	inactive
Dnajb2	0.99	enough cells in well	216	175	inactive

The list goes on.
target	Tnf reporter robust z-score	fewer than 50 cells in well	Tnf reporter intensity, replicate 1	Tnf reporter intensity, replicate 2	outcome
Fam187a	1.44	enough cells in well	232	246	inactive
Smad6	-1.93	enough cells in well	104	101	active
Prrt3	-1.65	enough cells in well	73.2	75.4	active
Glrx5		fewer than 50 cells per well; well left out of calls	208	22	inactive
AI467606	-0.26	enough cells in well	162	196	inactive
Gnpat	-0.77	enough cells in well	193	125	inactive
Nin	0.6	enough cells in well	230	177	inactive
Celsr1	0.37	enough cells in well	203	399	inactive
Mug1	-0.51	enough cells in well	181	78.1	inactive
Shroom3	-0.78	enough cells in well	57	72.9	inactive
Ngb	-1.1	enough cells in well	154	60.3	inactive
Ndufb4	-0.39	enough cells in well	218	80.2	inactive
Gmps	-0.38	enough cells in well	187	182	inactive
Cd84	-0.13	enough cells in well	210	223	inactive
Caps2	-1.06	enough cells in well	98.6	123	inactive
Adam7	0.12	enough cells in well	255	157	inactive
Phc3	0.14	enough cells in well	135	158	inactive
Sdr42e1		fewer than 50 cells per well; well left out of calls	283	90.9	inactive
Cts7	-0.24	enough cells in well	114	221	inactive
Or5c1	-0.27	enough cells in well	169	106	inactive
Med26	-0.75	enough cells in well	191	135	inactive
Rangrf	1.44	enough cells in well	193	192	inactive
Or6b1		fewer than 50 cells per well; well left out of calls	31.7	77.9	inactive
Cdkn1a	-0.84	enough cells in well	125	126	inactive
Zfp623	-0.37	enough cells in well	220	61.1	inactive
Tas2r109	-0.03	enough cells in well	116	82	inactive
Cxxc1	-1.26	enough cells in well	134	98.7	inactive
Entpd3	0.16	enough cells in well	237	248	inactive
Cnksr2	-0.34	enough cells in well	150	150	inactive
Elk3	-0.74	enough cells in well	134	215	inactive
Akap19		fewer than 50 cells per well; well left out of calls	153	89.9	inactive
Ldhd	-1.77	enough cells in well	86.4	47.1	active
Fxyd5	0.77	enough cells in well	316	169	inactive
Pald1	0.39	enough cells in well	262	214	inactive
Usp25	-0.63	enough cells in well	158	208	inactive
Elk4	0.71	enough cells in well	271	300	inactive
Ptx3	-0.65	enough cells in well	110	95.9	inactive
Mef2b	-1.25	enough cells in well	151	119	inactive
Cirbp	-0.54	enough cells in well	203	169	inactive
Ap1b1	-0.36	enough cells in well	183	163	inactive
Siah1b	0.29	enough cells in well	93.9	129	inactive
Fibin	0.01	enough cells in well	259	78.7	inactive
Tenm4	-0.45	enough cells in well	184	107	inactive
Cyp2c50	0.34	enough cells in well	277	210	inactive
Rxra	-0.45	enough cells in well	281	161	inactive
Kansl3	0.42	enough cells in well	184	83	inactive
Tbcb	-1.41	enough cells in well	94.1	81.9	active
Cyth2	-0.57	enough cells in well	156	192	inactive
Nfix	0.13	enough cells in well	257	85.2	inactive
Abhd16a	1.35	enough cells in well	315	285	inactive
